{"source": "the supplement of paper PMC5662767", "test_system": "Drosophila S2 cl14 SmoIP sensor cells", "experiment": "normalized SmoIP GFP fluorescence (untreated unstimulated = 0%, untreated Hh-stimulated = 100%); higher = more Smo activation sensor fluorescence", "conditions": "compound concentration: 15 uM, 24 h", "key": {"[1]": {"conditions": "stimulation: Hh conditioned medium (+Hh)"}, "[2]": {"conditions": "stimulation: mock conditioned medium (-Hh)"}}, "note": "The list shows a part of the results. Part of the spread comes from offsets between plates or batches.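 Smoothened with circularly permuted GFP in its cytoplasmic tail is carried by a clonal Drosophila S2 line; fluorescence appears when Hh-driven phosphorylation opens an inhibitory loop. Per-cell signal, read by flow cytometry, was scaled to Hh-stimulated untreated cells. Hits were consistent fluorescence-shifting groups of inhibitors sharing pathway targets, not single compounds.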"}
{"smiles": "CO[C@H]1C[C@@H]2CC[C@@H](C)[C@@](O)(O2)C(=O)C(=O)N2CCCC[C@H]2C(=O)O[C@H]([C@H](C)C[C@@H]2CC[C@@H](OP(C)(C)=O)[C@H](OC)C2)CC(=O)[C@H](C)/C=C(\\C)[C@@H](O)[C@@H](OC)C(=O)[C@H](C)C[C@H](C)/C=C/C=C/C=C/1C", "note": "[Deforolimus]", "values": [{"measurement": "normalized SmoIP GFP fluorescence", "setting": "[1]", "result": 60.6, "unit": "%"}, {"measurement": "normalized SmoIP GFP fluorescence", "setting": "[2]", "result": 18.3, "unit": "%"}]}
{"smiles": "O=C1NC(=O)/C(=C/c2cccc(C(F)(F)F)c2)S1", "values": [{"measurement": "normalized SmoIP GFP fluorescence", "setting": "[1]", "result": 187, "unit": "%"}, {"measurement": "normalized SmoIP GFP fluorescence", "setting": "[2]", "result": 25.9, "unit": "%"}]}
{"smiles": "Cc1ccc(N(CC2=NCCN2)c2cccc(O)c2)cc1", "note": "[phentolamine-mesilate]", "values": [{"measurement": "normalized SmoIP GFP fluorescence", "setting": "[1]", "result": 128, "unit": "%"}, {"measurement": "normalized SmoIP GFP fluorescence", "setting": "[2]", "result": -9.85, "unit": "%"}]}
{"smiles": "COCCOC(=O)C1=C(C)NC(C)=C(C(=O)OC/C=C/c2ccccc2)C1c1cccc([N+](=O)[O-])c1", "note": "(stereo not drawn) [Cilnidipine]", "values": [{"measurement": "normalized SmoIP GFP fluorescence", "setting": "[1]", "result": 118, "unit": "%"}, {"measurement": "normalized SmoIP GFP fluorescence", "setting": "[2]", "result": 37.1, "unit": "%"}]}
